{"source": "the supplement of paper PMC5407854", "about": "“Inhibitor of ppGalNAc-T3-mediated O-glycosylation blocks cancer cell invasiveness and lowers FGF23 levels” (eLife, 2017)", "note": "The other results are listed elsewhere or left out. Small differences around the control level are noise.", "data": [{"system": "ppGalNAc-T3 sensor", "experiment": "T3 sensor activation Q score (MG/GFP ratio z-score vs DMSO controls) (SD units); higher = more sensor activation (inhibition of ppGalNAc-T3 glycosylation)", "settings": "HEK293 sensor cells; 10 µM; 6 h", "method": "(§1)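 Cells were treated with compound at 10 uM for 6 h, then MG/GFP ratio was read by flow cytometry (10,000 cells per well, duplicate wells). Q = (R - R_neg)/SD_neg relative to DMSO vehicle controls; the signal rises when the glycosyltransferase is inhibited.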", "values": [{"compound": "O=C(Nc1cc(NC(=O)c2ccccc2)cc(-c2nc3ccccc3o2)c1)c1ccccc1", "T3 sensor activation Q score": -0.095}, {"compound": "Cc1ccn2cc(-c3ccc(Cl)cc3)nc2c1", "T3 sensor activation Q score": 0.17}, {"compound": "O=C(NCC(O)c1ccccc1)c1cccc(Cl)c1", "note": "(configuration not stated)", "T3 sensor activation Q score": -0.13}, {"compound": "O=S(=O)(Cc1ccccc1)c1nc2ccccc2[nH]1", "T3 sensor activation Q score": 1.41}, {"compound": "CC(C)Sc1nc2ncnc(N)c2[nH]1", "T3 sensor activation Q score": 0.575}, {"compound": "CN(C)Cc1ccccc1C(O)(c1ccccc1)c1ccccc1", "T3 sensor activation Q score": -0.255}, {"compound": "O=C(Nc1cccc(Cl)c1)N1CCCCCC1", "T3 sensor activation Q score": 0.165}, {"compound": "Cc1ccc(NS(=O)(=O)c2ccc(F)cc2)cc1C", "T3 sensor activation Q score": 1.05}, {"compound": "CCOC(=O)N1CCN(Cc2ccc(Cl)cc2)CC1", "T3 sensor activation Q score": 0.215}, {"compound": "O=C1CC(N2CCCCC2)C(=O)N1c1cccc(Cl)c1", "note": "(configuration not stated)", "T3 sensor activation Q score": -0.415}, {"compound": "CC(C)(C)c1cc(Br)cc(C=O)c1O", "T3 sensor activation Q score": 0.03}, {"compound": "COc1ccc(CNC2CCCCC2C)cc1", "note": "(configuration not stated)", "T3 sensor activation Q score": 0.775}, {"compound": "Cc1nc2nc(N)[nH]n2c(=O)c1Cc1ccccc1", "T3 sensor activation Q score": 0.88}, {"compound": "COc1ccc(CN2CCSCC2)cc1C", "T3 sensor activation Q score": -0.28}, {"compound": "O=[N+]([O-])c1cccc(CN2CCC(O)CC2)c1", "T3 sensor activation Q score": 0.47}, {"compound": "OC1CCN(Cc2ccc3c(c2)OCO3)CC1", "T3 sensor activation Q score": 0.4}, {"compound": "CCN1CCN(C2CC(=O)N(c3ccc(OC)cc3)C2=O)CC1", "note": "(configuration not stated)", "T3 sensor activation Q score": -0.02}]}, {"system": "ppGalNAc-T2 sensor", "experiment": "T2 sensor activation Q score (MG/GFP ratio z-score vs DMSO controls) (SD units); higher = more sensor activation (inhibition of ppGalNAc-T2 glycosylation)", "settings": "HEK293 sensor cells; 10 µM; 6 h", "method": "as §1", "values": [{"compound": "O=C(Nc1cnc2ccccc2c1)C12CC3CC(CC(C3)C1)C2", "T2 sensor activation Q score": 0.83}, {"compound": "COc1ccc(CC2=C(O)c3ccccc3C(=O)C2=O)cc1", "T2 sensor activation Q score": -0.925}, {"compound": "CC1NC(C(=O)O)Cc2c1[nH]c1ccccc21", "note": "(configuration not stated)", "T2 sensor activation Q score": 0.21}, {"compound": "CC(C)Sc1nc2ncnc(N)c2[nH]1", "T2 sensor activation Q score": 1.35}, {"compound": "Cc1ccc(NS(=O)(=O)c2ccc(F)cc2)cc1C", "T2 sensor activation Q score": 0.04}, {"compound": "CCOC(=O)N1CCN(Cc2ccc(Cl)cc2)CC1", "T2 sensor activation Q score": 0.805}, {"compound": "O=C1CC(N2CCCCC2)C(=O)N1c1cccc(Cl)c1", "note": "(configuration not stated)", "T2 sensor activation Q score": 0.48}, {"compound": "Cc1nc2nc(N)[nH]n2c(=O)c1Cc1ccccc1", "T2 sensor activation Q score": -0.69}, {"compound": "COc1ccc(CN2CCSCC2)cc1C", "T2 sensor activation Q score": 0.55}, {"compound": "CCN1CCN(C2CC(=O)N(c3ccc(OC)cc3)C2=O)CC1", "note": "(configuration not stated)", "T2 sensor activation Q score": -0.255}]}]}
